Measured values reported in PubChem BioAssay AID2685 (National Center for Advancing Translational Sciences (NCATS), 2010).
The other results are listed elsewhere or left out. Further columns of the screen follow, without active or inactive calls. The list favours compounds with an active or inconclusive main result. The note in brackets gives the kind of curve behind each potency; many fits are weak.

Assay: qHTS Assay for Lipid Storage Modulators in Drosophila S3 Cells;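 for cell number change: cells counted by Cell Tracker Red CMTPX staining in the red channel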
Settings: BODIPY lipid droplet fluorescence, 18-24 h; for cell number change: measured here: cell count max response, cells fed with added oleic acid
In short: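 Drosophila S3 cells got compounds at several concentrations plus oleic acid (400 uM solution). Laser-scanning cytometry with 488 nm excitation read lipid droplets at 500-530 nm and cells at 575-640 nm. Percent activity was relative to 20 uM Triacsin C.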

[1] = measured here: lipid fluorescence (Fed channel) AC50, cells fed with added oleic acid
[2] = measured here: cell number channel AC50, cells fed with added oleic acid

Cc1cccc(N2CCN(C(=O)CN3C(=O)C4CC=CCC4C3=O)CC2)c1C (stereo not given)
cell number change: 23.1%

Cc1cc(C)nc(N/N=C2/CCSc3ccc(F)cc32)n1
cell number change: -13.2%
AC50 [1]: 5.62 µM [rising, single point]

Cc1ccsc1C(=O)Nc1cc(C(C)(C)C)nn1-c1ccccc1
cell number change: 33.2%
AC50 [2]: 2.91 µM [rising, partial curve, poor fit]
AC50 [1]: 6.51 µM [rising, single point]

COc1cc2nc(=S)n3[nH]c(CCn4nc(C)cc4C)nc3c2cc1OC
cell number change: 6.76%

CC(=O)Oc1cccc(C(=O)Nc2c[nH]c(=O)[nH]c2=O)c1
AC50 [1]: 0.13 µM [falling, full curve, poor fit]

CCOC(=O)N1CCN(CC(O)COc2c(C)cccc2C)CC1 (stereo not given)
cell number change: -1.02%
AC50 [1]: 29.1 µM [rising, single point]

CCN1CCN(c2ccc(NC(=O)c3cccc(F)c3)cc2Cl)CC1
AC50 [2]: 0.103 µM [falling, full curve, poor fit]

CC1CCN(C(=O)CSc2nnc3c(n2)[nH]c2ccc(F)cc23)CC1
AC50 [1]: 1.16 µM [rising, full curve]

Cc1cc(C)n(-c2nc3c(c(=O)[nH]c(=O)n3C)n2Cc2ccc(F)cc2)n1
cell number change: 57.7%
AC50 [2]: 3.66 µM [rising, partial curve, poor fit]
AC50 [1]: 1.64 µM [rising, partial curve]

CCn1c2ccccc2c2nnc(NN)nc21
cell number change: 50%
AC50 [2]: 5.8 µM [rising, full curve]
AC50 [1]: 3.26 µM [rising, partial curve, poor fit]

CC(=O)Nc1ccc(C(=O)NC2CCCC2)cc1
cell number change: 6.12%

O=C(N1CCOCC1)N1CCN(S(=O)(=O)c2ccc(Cl)cc2)CC1
cell number change: -14.7%
AC50 [1]: 2.31 µM [rising, partial curve]

CN(C)C(=O)CCCc1nc(-c2ccc(Cl)cc2)no1
cell number change: -16.2%
AC50 [1]: 4.61 µM [rising, single point]

NC(=O)c1cc(S(=O)(=O)NCc2ccc(Br)cc2)cs1
cell number change: 3.44%
AC50 [1]: 29.1 µM [rising, single point]

Cc1cc(N)ccc1NC(=O)CN1CCCC1
cell number change: 24.3%

CCOC(=O)N1CCC(NC(=O)c2cc3ccccn3n2)CC1
AC50 [2]: 0.291 µM [rising, full curve, poor fit]

O=C(Cc1ccccc1)NN1C(=O)C2C(C1=O)C1C=CC2C12CC2 (stereo not given)
cell number change: 4.76%
AC50 [1]: 5.8 µM [rising, single point]

COc1ccc2[nH]c3c(c2c1)CCN1C(=O)N([C@@H](C)C(=O)NCCc2ccc(OC)c(OC)c2)C(=O)[C@]31C
cell number change: -35.3%
AC50 [2]: 0.461 µM [falling, full curve]
AC50 [1]: 1.64 µM [falling, partial curve]

CCCc1cc(-c2nc(-c3ccc(C)cc3)cs2)ccn1
cell number change: -38.9%
AC50 [2]: 29.1 µM [falling, single point]

c1cncc(-c2cn(C[C@H]3CC[C@@H]([C@@H]4CC[C@H](Cn5cc(-c6cccnc6)nn5)O4)O3)nn2)c1
AC50 [1]: 16.4 µM [falling, partial curve]

CCOc1ccc(C(=O)NCc2cccs2)cc1
cell number change: -3.78%

Cc1ccc(-c2cc(C(=O)NCCCn3ccnc3)no2)cc1
cell number change: 27.1%
AC50 [1]: 20.6 µM [rising, partial curve, poor fit]

Cc1nn(-c2ccccc2)c(C)c1C(=O)OCC(=O)Nc1ccccc1C(F)(F)F
cell number change: -0.125%
AC50 [1]: 3.66 µM [falling, single point]

Nc1nc(-c2ccc(Cl)cc2)c(N=Nc2ccc(S(=O)(=O)N3CCOCC3)cc2)s1
cell number change: -18.7%
AC50 [2]: 3.26 µM [falling, single point]
AC50 [1]: 6.51 µM [rising, partial curve, poor fit]

Cn1c(SCC(=O)N2CCOCC2)nnc1-c1ccccc1
cell number change: -44.8%
AC50 [2]: 16.4 µM [falling, single point]
AC50 [1]: 16.4 µM [falling, single point]

COc1ccc(NC(=O)/C=C/c2ccc(S(=O)(=O)N3CCOCC3)cc2)cc1
cell number change: -5.92%
AC50 [1]: 20.6 µM [rising, single point]

Cc1oc(=O)c(NC(=O)c2ccccc2)cc1C(=O)c1ccccc1
cell number change: -51.7%
AC50 [2]: 16.4 µM [falling, partial curve]
AC50 [1]: 18.4 µM [falling, partial curve]

COc1ccc(C(=O)NC2CCc3ccccc32)cc1OC1CCN(C(C)=O)CC1 (stereo not given)
cell number change: 1.62%

Cc1ccc2c(c1)C=CC(C)N2C(=O)c1ccccc1 (stereo not given)
cell number change: -0.521%

O=C(NCc1ccco1)Nc1cccc([N+](=O)[O-])c1
cell number change: 6.95%
AC50 [1]: 0.58 µM [rising, single point]

O=C(NCc1ccccc1)C1(c2ccccc2)CCN(S(=O)(=O)c2ccccc2)CC1
cell number change: 14.2%
AC50 [1]: 6.51 µM [rising, single point]

Nc1nc(NCCO)nc(NCC2CCCO2)c1[N+](=O)[O-] (stereo not given)
cell number change: -1.6%
AC50 [1]: 0.00411 µM [rising, full curve, poor fit]

COc1cc(OC)cc(-c2c(-c3cccs3)c3cc(-c4cccc5[nH]ccc45)ccc3n2C)c1
cell number change: -17.2%
AC50 [1]: 25.9 µM [rising, single point]

Cc1ccc(NC(=O)C2=CCN(S(=O)(=O)c3ccc(F)cc3)CC2)cc1
cell number change: 18.1%
AC50 [1]: 8.2 µM [rising, partial curve]

Cc1ccc2c(c1)CCCN2CC(=O)N(C)c1c(N)n(Cc2ccccc2)c(=O)[nH]c1=O
cell number change: -37.6%
AC50 [2]: 4.11 µM [falling, full curve]

CC(Oc1cc(C(F)(F)F)cc(C(F)(F)F)c1)C(=O)NC(N)=O (stereo not given)
cell number change: -26.2%

O=C(Nc1ccc(O)cc1)C1CCCO1 (stereo not given)
cell number change: -64.3%
AC50 [2]: 29.1 µM [falling, single point]
AC50 [1]: 2.91 µM [falling, partial curve]

CCOc1cccc(NC(=O)c2cnccc2C(F)(F)F)c1
cell number change: 2.45%

COc1ccc(C(=O)NN2C(=S)N(c3ccc(OC)cc3)C(=O)C2CC(N)=O)cc1 (stereo not given)
cell number change: 13.3%

CCC(C(=O)N1CCc2cc(OC)c(OC)cc2C1)c1ccccc1 (stereo not given)
AC50 [1]: 6.51 µM [rising, single point]

O=C(c1cccc(Br)c1)c1cn(-c2ccccc2)nc1C(=O)c1ccccc1
cell number change: -42.4%
AC50 [2]: 10.3 µM [falling, partial curve]
AC50 [1]: 23.1 µM [falling, partial curve]

O=C1CN(C(=O)NCC(=O)N[C@@H](C(=O)O)c2ccccc2)c2ccccc2N1
cell number change: -24.9%
AC50 [2]: 2.31 µM [rising, single point]

COc1cc(NC(=O)CCc2ccccc2)c(C(=O)O)cc1OC
cell number change: 41.9%
AC50 [2]: 14.6 µM [rising, single point]

CCOc1ccc(Cc2c(Cl)nc(SC)nc2OC)cc1
cell number change: -4.04%

O=C(CSCC(=O)Nc1nc(-c2ccc3c(c2)OCO3)cs1)Nc1nccs1
cell number change: -63.2%
AC50 [2]: 8.2 µM [falling, partial curve]
AC50 [1]: 0.731 µM [falling, full curve, poor fit]

COc1cccc(NC(=O)CN(C)C(=O)Cc2cccc3ccccc23)c1
cell number change: -1.9%
AC50 [1]: 0.00461 µM [rising, full curve, poor fit]

CCCCn1c(Cn2nc(C(=O)O)c3ccccc3c2=O)nc2cc(S(N)(=O)=O)ccc21
cell number change: -15.8%

CC(=O)Nc1cccc(Cn2cccn2)c1
AC50 [1]: 0.082 µM [falling, full curve, poor fit]

Cc1ccc(Cn2c(SC(C)C(N)=O)nc3ccccc3c2=O)cc1 (stereo not given)
cell number change: 9.47%

COc1cc(C)c(NC(=O)C(=S)NCCc2ccccc2)cc1C
cell number change: 67.4%
AC50 [2]: 16.4 µM [rising, single point]

NS(=O)(=O)CCCc1ccccc1
cell number change: 14.2%
AC50 [2]: 0.58 µM [rising, partial curve, poor fit]
AC50 [1]: 3.66 µM [rising, full curve]

CCNC(=O)c1ccccc1NC(=O)c1cccc(S(=O)(=O)N2CCC(C)CC2)c1
cell number change: -21.9%

COc1ccc(N(C(=O)c2cccc([N+](=O)[O-])c2)S(=O)(=O)c2ccc3c(c2)n(C)c(=O)n3C)cc1
cell number change: 165%
AC50 [2]: 23.1 µM [rising, single point]
AC50 [1]: 29.1 µM [rising, partial curve]

Cc1ccc(C(=O)NC(=S)Nc2cccc3nsnc23)cc1
cell number change: 6.27%
AC50 [1]: 29.1 µM [rising, single point]

CCC1(c2ccccc2)NC(=O)N(CC(=O)Nc2ccc3c(C)cc(=O)oc3c2)C1=O (stereo not given)
cell number change: 11.8%
AC50 [2]: 0.82 µM [rising, full curve, poor fit]
AC50 [1]: 1.16 µM [rising, full curve, poor fit]

C=CCNC(=O)c1c(CSc2ccc(F)cc2)noc1C(=O)NCCC
cell number change: -34.7%
AC50 [2]: 29.1 µM [falling, single point]
AC50 [1]: 20.6 µM [falling, single point]

CC(C)C(NC(=O)c1ccc(C(C)(C)C)cc1)C(=O)OCC(=O)NC(=O)Cc1ccccc1 (stereo not given)
cell number change: -13%
AC50 [1]: 1.03 µM [falling, full curve, poor fit]

COCCNC(=O)Cn1cnc2c(cnn2-c2ccc(C)cc2)c1=O
cell number change: 37.9%
AC50 [2]: 0.259 µM [rising, full curve, poor fit]

CC1CCN(S(=O)(=O)c2cccc(C(=O)N(C)C3CCS(=O)(=O)C3)c2)CC1 (stereo not given)
cell number change: 9.37%

CC(Oc1ccc(F)cc1)C(=O)Nc1cc(C(F)(F)F)ccc1-n1cncn1 (stereo not given)
cell number change: 42.6%
AC50 [2]: 0.461 µM [rising, full curve]
AC50 [1]: 0.461 µM [rising, partial curve]

Cc1ccc(NC(=O)c2cc(S(=O)(=O)N3CCOCC3)ccc2F)c(C)c1
cell number change: -24.7%
AC50 [1]: 0.164 µM [rising, full curve, poor fit]
